Reference: paper doi:10.1101/2023.06.02.543398
No constants are given. Whether binding was seen depends on the method and setting. Some entries that bind do so weakly or less than the wild type.

Amino acid sequences for entries named in this document (tags omitted). Residues count along the entry.
UniProt Q14244, residues 59-170: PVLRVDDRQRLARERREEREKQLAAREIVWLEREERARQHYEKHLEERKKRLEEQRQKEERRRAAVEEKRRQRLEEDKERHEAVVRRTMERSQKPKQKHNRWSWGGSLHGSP

Molecular target: MAP7 MT-binding domain (MTBD), residues 59-170 (Homo sapiens) (UniProt Q14244)
Assay: NMR titration

## DATAEEEEDFGEEAEEEA [β-tubulin carboxy-terminal tail peptide (Asp 427-Ala 444 of HeLa S3 β-tubulin)]
  binding: binds weakly
